# Assay results: patent US20250346678A1
# By UniProt entry, the sequences of proteins in these tests, tags left out. Where a name states a change or a piece, a line headed by the entry shows the natural chain unless it says otherwise.
# UniProt Q9NZQ7: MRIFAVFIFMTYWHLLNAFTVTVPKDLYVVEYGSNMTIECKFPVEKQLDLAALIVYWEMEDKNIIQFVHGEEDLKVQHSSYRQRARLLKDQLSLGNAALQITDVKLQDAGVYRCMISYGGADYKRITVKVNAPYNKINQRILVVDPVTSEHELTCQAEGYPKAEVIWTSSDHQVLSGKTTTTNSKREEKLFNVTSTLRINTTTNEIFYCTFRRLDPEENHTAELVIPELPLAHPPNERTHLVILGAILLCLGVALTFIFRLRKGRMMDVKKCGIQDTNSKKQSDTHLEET
# No constants are given. Whether binding was seen depends on the method and setting. Some results given as binding are weak or reduced against the parent protein; the word gives no strength.
# Biological target: human PD-L1 IgG1 Fc chimera (human) (UniProt Q9NZQ7)
# Experiment: phage display selection and direct ELISA screening
binder,measurement,value
"OM-PDL1-32 (Fab, V domains shown) VH: QVQLVQSGAKVKKPGSSVKVSCKASGGTFSSYAISWVRQAPGQGLEWMGRIIPILGIANYAQKFQGRVTITADKSTSTAYMELSSLRSEDTAVYYCARVVPGYSYGPFDYWGQGTTVTVSS VL: QSALTQPASVSGSPGQSITISCTGTSNDVGSYNSVSWYQQHPGKAPKLVIYEVANRPSGVPDRFSGSKSGNTASLTISGLQAEDEADYYCSSYTSSSTLVFGGGTKLTVLG",binding,binds
